Reference: the supplement of paper PMC3334620
Whole data set: some 33,000 sequences, median “E-score (-0.5 to 0.5)” near -0.0014, cut for the highest 2% near 0.25. This is one part of the list.

target: T1, Cad1 (UniProt P24813); experiment: PBM E-score (8-mer binding enrichment) (E-score (-0.5 to 0.5)); higher = stronger / more preferred TF binding; settings: protein concentration: 100 nM; construct: GST-full length
T1 sequence: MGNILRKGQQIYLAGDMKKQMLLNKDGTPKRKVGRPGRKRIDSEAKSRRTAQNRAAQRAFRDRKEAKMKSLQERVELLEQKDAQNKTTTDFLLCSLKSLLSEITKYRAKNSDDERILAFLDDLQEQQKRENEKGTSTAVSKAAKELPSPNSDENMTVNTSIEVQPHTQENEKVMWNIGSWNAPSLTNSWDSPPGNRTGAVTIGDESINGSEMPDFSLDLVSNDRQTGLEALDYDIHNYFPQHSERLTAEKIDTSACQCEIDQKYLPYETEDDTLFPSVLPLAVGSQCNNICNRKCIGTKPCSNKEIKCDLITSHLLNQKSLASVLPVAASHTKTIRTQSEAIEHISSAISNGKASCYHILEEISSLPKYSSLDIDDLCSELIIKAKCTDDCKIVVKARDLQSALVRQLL
Method in brief: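 E-scores (a modified Wilcoxon-Mann-Whitney statistic) were assigned by the Universal PBM Analysis Suite to every ungapped eight-base word pooled with its reverse complement. The input came from universal all-10-mer Agilent arrays made double-stranded by primer extension and probed with GST-tagged yeast transcription factors at about 100-200 nM. Fluorescent anti-GST detected bound protein, and masliner normalised the scans.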

In order of falling “PBM E-score” value:
1. ACGTAAGC  0.287
2. CCAAAAAA  0.241
3. TCGGACAA  0.225
4. CGAAATAC  0.22
5. ATAACTCA  0.218
6. AACGGAGT  0.212
7. ATTAGATA  0.211
8. GAATTATC  0.207
9. TCAATTAA  0.206
10. TAAACGCA  0.202
11. GTGTGAAA  0.195
12. ACTCAACC  0.194
13. AACAAATA  0.186
14. TAGCGTAA  0.183
15. CGTGCTTA  0.175
16. ATTTCGAA  0.169
17. ATAAGGTG  0.163
18. AATTCCGG  0.163
19. ATCGAAGG  0.158
20. CAGAGTTC  0.155
21. TGAGCAAA  0.143
22. CGAGGTGC  0.142
23. AACGCTGT  0.137
24. CGTAACGC  0.133
25. CTCGTATC  0.131
26. CAAAGCAA  0.129
27. CACAAAAC  0.125
28. GGTATGAA  0.123
29. TCCCACGA  0.122
30. ACAGACAC  0.122
31. CCCGCTTA  0.121
32. CGGTTTCC  0.121
33. AGTTGACA  0.119
34. CATACGTA  0.117
35. GTGATCTA  0.113
36. CCTGACGA  0.112
37. GTTGCGTA  0.111
38. CTCATTGC  0.109
39. GCCGGCCA  0.108
40. TTAGATAA  0.105
41. CTCGCGTC  0.0998
42. AGGCTTAC  0.0988
43. GTAGTACA  0.097
44. ACGCTTTA  0.0919
45. GACATCGC  0.0879
46. AATGCTAA  0.0828
47. GAATTTCA  0.0817
48. CCGGCGTC  0.0817
49. TCGATCAA  0.0767
50. AGTGCCGA  0.0766
51. AAAAACGT  0.0745
52. CGGTATTC  0.0714
53. AGCAAATA  0.0703
54. AAAGTTAT  0.0695
55. CTCTGCGC  0.0684
56. ATGTCCGC  0.0661
57. CGTGCATA  0.0661
58. GAACTTCA  0.066
59. GCCGTCGC  0.0609
60. GCTAGCTA  0.0605
61. ACCACATA  0.0572
62. GTCCCACA  0.0564
63. ACGCATCG  0.0475
64. CGAGCGGC  0.0466
65. AAGTTGTG  0.0444
66. TACTAGAA  0.0443
67. ATTATATC  0.0433
68. ACCCCAAT  0.0428
69. CGATTTCC  0.0421
70. GAACTCTA  0.0411
71. ACTATTCT  0.0403
72. CCCCATCC  0.0372
73. CTGCGTGA  0.0364
74. ATTACACG  0.0358
75. CATCGTTC  0.0341
76. GCCATCCC  0.0332
77. GGGCATAA  0.033
78. ATCTCGTA  0.0325
79. CATCCACA  0.0323
80. TTCGGAAA  0.032
81. TAATCTGA  0.0309
82. ACCGCATA  0.0299
83. AGTAAGAC  0.0266
84. GGAGCGAC  0.0262
85. CAATATAC  0.0244
86. GGCAGATA  0.0222
87. AATCACGA  0.0219
88. GCTAGGTA  0.0171
89. CAACAGTC  0.0156
90. GGCGATTA  0.0143
91. AGTATTGC  0.0133
92. CTTTTATC  0.00822
93. AGATGAAT  0.00515
94. AGAACGCA  0.00375
95. ATCACGAT  0.00311
96. AAGATTGC  -0.00431
97. GGTTAAGA  -0.0069
98. GAACGTAC  -0.00789
99. CAAGCTGC  -0.00852
100. AGCAAAGG  -0.00929
101. AGCCGCAC  -0.00957
102. TCTGTCAA  -0.0111
103. CGGCATAC  -0.0115
104. CGTTGGGC  -0.0152
105. CAATAACA  -0.0158
106. CAAGGGTC  -0.02
107. AGTGTGGG  -0.0209
108. CTTGTCCC  -0.0227
109. GTACGAGA  -0.0229
110. ACGCAGAG  -0.0267
111. CTCTTTAA  -0.03
112. AGGGTAAG  -0.0352
113. CACACGAC  -0.0361
114. GGGTTGCA  -0.0385
115. GGCTCTAA  -0.0431
116. CGCCTCAC  -0.0432
117. AGTAACTC  -0.0448
118. CTAGCCTA  -0.0452
119. ATGTGCTA  -0.0463
120. CCGGACTA  -0.0508
121. GGTGTCAA  -0.0544
122. ATGGAGAC  -0.0562
123. CCAGGCAC  -0.0563
124. GAAACTCC  -0.0582
125. CAACCAAC  -0.0616
126. CTCGAGTC  -0.0647
127. GCTAAAAC  -0.073
128. CCCATCCA  -0.073
129. ACACCGAT  -0.0734
130. GGTGAAAC  -0.0742
131. CCCGCTAG  -0.0769
132. CAGCCATG  -0.077
133. GCTCATCA  -0.0777
134. AGTCAGTC  -0.08
135. AGAATTGC  -0.0819
136. TCAGATCA  -0.0851
137. GAGCCCAA  -0.0911
138. AAGCTATA  -0.0979
139. CCCTAGGA  -0.1
140. CAGGCGAC  -0.104
141. AGGTCAAG  -0.107
142. ACTCTTGA  -0.108
143. CCTACATC  -0.109
144. ACGAACCC  -0.109
145. GGTTAGAA  -0.111
146. GGACAGGA  -0.118
147. GGTACAAC  -0.124
148. AGGCTGAT  -0.124
149. CTATCTGA  -0.13
150. GAGCTAAC  -0.133
151. CGATGCCG  -0.137
152. CCCACCGA  -0.138
153. ACGCTAAG  -0.142
154. ATGGTCCA  -0.142
155. GCAGCTCC  -0.145
156. CATGCACC  -0.146
157. CCAGATAG  -0.146
158. AACTTGAG  -0.154
159. CGACCATC  -0.156
160. ACATGACC  -0.162
161. GAGATAGC  -0.163
162. CGCCCTTC  -0.164
163. CCAAGGAC  -0.171
164. AGGTACAT  -0.172
165. AGTGCTAC  -0.178
166. CTGTCTGA  -0.185
167. AACGTCAG  -0.201
168. CCCTCTCG  -0.241
169. CAGGTCAC  -0.267
170. AGCCTCCA  -0.312
171. AGGACGGG  -0.355
172. GCTCCCCC  -0.429
